Results on 2 molecules are retold here after PMC7956269.

These are yes or no findings as the source states them, for the method shown. In cells and extracts the contact can be indirect. Here binding means that the protein was enriched with, or labelled near, the bait; the list need not be complete.

For the assay, the target named is Biotin-FOXC1 (mouse) (UniProt Q61572). The experiment in a line: affinity purification with mass spectrometry; streptavidin-agarose precipitation of biotinylated FOXC1 from nuclear extract of stable HEK293T cells (293T-Biotin-FOXC1); IP350 buffer (350 mM NaCl, 20 mM Tris-HCl pH 7.5, 0.5% NP40, 1 mM EDTA, 10% glycerin); SDS-PAGE, LC-ESI-MS/MS; proteins of the 293T-Biotin control deducted.

B1: Clybl (protein, UniProt Q8N0X4 23-340)
chain: ASLAADIPRLGYSSSSHHKYIPRRAVLYVPGNDEKKIKKIPSLNVDCAVLDCEDGVAANKKNEARLRIVKTLEDIDLGPTEKCVRVNSVSSGLAEEDLETLLQSRVLPSSLMLPKVESPEEIQWFADKFSFHLKGRKLEQPMNLIPFVETAMGLLNFKAVCEETLKVGPQVGLFLDAVVFGGEDFRASIGATSSKETLDILYARQKIVVIAKAFGLQAIDLVYIDFRDGAGLLRQSREGAAMGFTGKQVIHPNQIAVVQEQFSPSPEKIKWAEELIAAFKEHQQLGKGAFTFQGSMIDMPLLKQAQNTVTLATSIKEK
For the molecule B1, the binding entry is recorded as “binds”.

B2: Hells (protein, UniProt Q9NRZ9 1-838)
chain: MPAERPAGSGGSEAPAMVEQLDTAVITPAMLEEEEQLEAAGLERERKMLEKARMSWDRESTEIRYRRLQHLLEKSNIYSKFLLTKMEQQQLEEQKKKEKLERKKESLKVKKGKNSIDASEEKPVMRKKRGREDESYNISEVMSKEEILSVAKKNKKENEDENSSSTNLCVEDLQKNKDSNSIIKDRLSETVRQNTKFFFDPVRKCNGQPVPFQQPKHFTGGVMRWYQVEGMEWLRMLWENGINGILADEMGLGKTVQCIATIALMIQRGVPGPFLVCGPLSTLPNWMAEFKRFTPDIPTMLYHGTQEERQKLVRNIYKRKGTLQIHPVVITSFEIAMRDRNALQHCYWKYLIVDEGHRIKNMKCRLIRELKRFNADNKLLLTGTPLQNNLSELWSLLNFLLPDVFDDLKSFESWFDITSLSETAEDIIAKEREQNVLHMLHQILTPFLLRRLKSDVALEVPPKREVVVYAPLSKKQEIFYTAIVNRTIANMFGSSEKETIELSPTGRPKRRTRKSINYSKIDDFPNELEKLISQIQPEVDRERAVVEVNIPVESEVNLKLQNIMMLLRKCCNHPYLIEYPIDPVTQEFKIDEELVTNSGKFLILDRMLPELKKRGHKVLLFSQMTSMLDILMDYCHLRDFNFSRLDGSMSYSEREKNMHSFNTDPEVFIFLVSTRAGGLGINLTAADTVIIYDSDWNPQSDLQAQDRCHRIGQTKPVVVYRLVTANTIDQKIVERAAAKRKLEKLIIHKNHFKGGQSGLNLSKNFLDPKELMELLKSRDYEREIKGSREKVISDKDLELLLDRSDLIDQMNASGPIKEKMGIFKILENSEDSSPECLF
For B2, the binding entry is “binds”.
